This is an account of results in article PMC10178869.

No constants are given. Whether binding was seen depends on the method and setting.

For this test, the target named is E. coli Aquaporin Z (AqpZ) (E. coli) (UniProt P60844). Nature of the test: SDS-PAGE with or without heating; purified AqpZ nanodiscs (ND) or AqpZ in OG micelles, heated to 70 °C or unheated; both purified.

B1: E. coli Aquaporin Z (AqpZ) (protein, UniProt P60844 1-231)
chain: MFRKLAAECFGTFWLVFGGCGSAVLAAGFPELGIGFAGVALAFGLTVLTMAFAVGHISGGHFNPAVTIGLWAGGRFPAKEVVGYVIAQVVGGIVAAALLYLIASGKTGFDAAASGFASNGYGEHSPGGYSMLSALVVELVLSAGFLLVIHGATDKFAPAGFAPIAIGLALTLIHLISIPVTNTSVNPARSTAVAIFQGGWALEQLWFFWVVPIVGGIIGGLIYRTLLEKRD
Take B1: the binding result was “no binding (condition: heated to 70 °C for SDS-PAGE)”.
